The values below come from paper PMC10571261.

By UniProt entry, the sequences of proteins in these tests, tags left out.
UniProt Q15554: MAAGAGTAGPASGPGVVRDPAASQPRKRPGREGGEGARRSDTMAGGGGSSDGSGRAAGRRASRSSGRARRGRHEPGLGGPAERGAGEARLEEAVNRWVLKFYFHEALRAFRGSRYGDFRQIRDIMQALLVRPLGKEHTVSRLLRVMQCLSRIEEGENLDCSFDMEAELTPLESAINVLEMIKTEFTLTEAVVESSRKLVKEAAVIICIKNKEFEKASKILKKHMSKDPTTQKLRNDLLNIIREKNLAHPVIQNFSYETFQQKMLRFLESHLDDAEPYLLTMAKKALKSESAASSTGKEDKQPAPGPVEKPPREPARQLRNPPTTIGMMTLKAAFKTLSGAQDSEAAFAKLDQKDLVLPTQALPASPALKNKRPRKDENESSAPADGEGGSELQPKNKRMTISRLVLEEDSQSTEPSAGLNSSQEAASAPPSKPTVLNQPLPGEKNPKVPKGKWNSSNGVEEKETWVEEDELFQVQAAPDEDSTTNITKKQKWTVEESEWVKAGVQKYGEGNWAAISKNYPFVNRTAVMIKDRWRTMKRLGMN

Results are given in words; binding and its absence hold for the method and conditions named. Binding seen in cells or lysates may run through a third protein. Some binding calls cover weakened binding; strength is not graded here. Tags and fused reporters may be left off the sequences shown.

The assay concerns the target Telomeric repeat-binding factor 2 (TRF2) (human (endogenous in HCT116)) (UniProt Q15554). In words: co-IP; anti-TRF2 antibody (~2 μg) on Protein A/G magnetic beads, IgG as negative control; NP-40 whole-cell lysate, 4 ℃ overnight, eight washes with lysis buffer, immunoblot; extract of MCCC2-FLAG expressing cells (Fig. 4A) or lysates of MCCC2 KO cells stably expressing FLAG-tagged MCCC2 constructs (Fig. 4E).

B1: FLAG-tagged wild-type MCCC2 (amino acids 1–564) (protein, UniProt Q9HCC0-1 23-563)
chain: YHGDSVASLGTQPDLGSALYQENYKQMKALVNQLHERVEHIKLGGGEKARALHISRGKLLPRERIDNLIDPGSPFLELSQFAGYQLYDNEEVPGGGIITGIGRVSGVECMIIANDATVKGGAYYPVTVKKQLRAQEIAMQNRLPCIYLVDSGGAYLPRQADVFPDRDHFGRTFYNQAIMSSKNIAQIAVVMGSCTAGGAYVPAMADENIIVRKQGTIFLAGPPLVKAATGEEVSAEDLGGADLHCRKSGVSDHWALDDHHALHLTRKVVRNLNYQKKLDVTIEPSEEPLFPADELYGIVGANLKRSFDVREVIARIVDGSRFTEFKAFYGDTLVTGFARIFGYPVGIVGNNGVLFSESAKKGTHFVQLCCQRNIPLLFLQNITGFMVGREYEAEGIAKDGAKMVAAVACAQVPKITLIIGGSYGAGNYGMCGRAYSPRFLYIWPNARISVMGGEQAANVLATITKDQRAREGKQFSSADEAALKEPIIKKFEEEGNPYYSSARVWDDGIIDPADTRLVLGLSFSAALNAPIEKTDFGIFRM
B1: the binding entry is “binds”.

B2: FLAG-tagged mutant MCCC2 ∆2–22 (543aa) (protein, UniProt Q9HCC0-1 23-563)
chain: YHGDSVASLGTQPDLGSALYQENYKQMKALVNQLHERVEHIKLGGGEKARALHISRGKLLPRERIDNLIDPGSPFLELSQFAGYQLYDNEEVPGGGIITGIGRVSGVECMIIANDATVKGGAYYPVTVKKQLRAQEIAMQNRLPCIYLVDSGGAYLPRQADVFPDRDHFGRTFYNQAIMSSKNIAQIAVVMGSCTAGGAYVPAMADENIIVRKQGTIFLAGPPLVKAATGEEVSAEDLGGADLHCRKSGVSDHWALDDHHALHLTRKVVRNLNYQKKLDVTIEPSEEPLFPADELYGIVGANLKRSFDVREVIARIVDGSRFTEFKAFYGDTLVTGFARIFGYPVGIVGNNGVLFSESAKKGTHFVQLCCQRNIPLLFLQNITGFMVGREYEAEGIAKDGAKMVAAVACAQVPKITLIIGGSYGAGNYGMCGRAYSPRFLYIWPNARISVMGGEQAANVLATITKDQRAREGKQFSSADEAALKEPIIKKFEEEGNPYYSSARVWDDGIIDPADTRLVLGLSFSAALNAPIEKTDFGIFRM
On to B2, for which the binding result is recorded as “binds”.

B3: FLAG-tagged mutant MCCC2 ∆343–372 (534aa) (protein, UniProt Q9HCC0-1)
chain: YHGDSVASLGTQPDLGSALYQENYKQMKALVNQLHERVEHIKLGGGEKARALHISRGKLLPRERIDNLIDPGSPFLELSQFAGYQLYDNEEVPGGGIITGIGRVSGVECMIIANDATVKGGAYYPVTVKKQLRAQEIAMQNRLPCIYLVDSGGAYLPRQADVFPDRDHFGRTFYNQAIMSSKNIAQIAVVMGSCTAGGAYVPAMADENIIVRKQGTIFLAGPPLVKAATGEEVSAEDLGGADLHCRKSGVSDHWALDDHHALHLTRKVVRNLNYQKKLDVTIEPSEEPLFPADELYGIVGANLKRSFDVREVIARIVDGSNGVLFSESAKKGTHFVQLCCQRNIPLLFLQNITGFMVGREYEAEGIAKDGAKMVAAVACAQVPKITLIIGGSYGAGNYGMCGRAYSPRFLYIWPNARISVMGGEQAANVLATITKDQRAREGKQFSSADEAALKEPIIKKFEEEGNPYYSSARVWDDGIIDPADTRLVLGLSFSAALNAPIEKTDFGIFRM
With B3, the binding entry was “binds”.
